For at least one entry, the source does not settle the construct or the ends of the probe. A negative result means that nothing was seen under these conditions. For part of these data: At least one verdict rests on a figure or table, not on a statement of the authors. For part of these data: Where a protein sequence is shown, tags need not be part of it.
Assays:
Assay in all cases: denaturing EMSA of covalent intermediate
[1] = test system: His-hQTRT1 (catalytic subunit of human TGT) + StrepII-hQTRT2 (noncatalytic subunit); conditions: without 9-deazaguanine (covalent complex only); RBT buffer: 50 mM Tris-HCl pH 7.5, 20 mM NaCl, 5 mM MgCl2, 2 mM DTT, 37 C, 1-1.5 h, with 9-deazaguanine (25-50 uM); capture-release with poly(U) and ArgSL competitors; recombinant protein; protein details: N-terminal His,N-terminal StrepII-SUMO
[2] = biological target: StrepII-hQTRT2 (noncatalytic subunit) (human) (UniProt Q9H974); conditions: 9-deazaguanine, without QTRT1; RBT buffer: 50 mM Tris-HCl pH 7.5, 20 mM NaCl, 5 mM MgCl2, 2 mM DTT, 37 C, 1-1.5 h, with 9-deazaguanine (25-50 uM); capture-release with poly(U) and ArgSL competitors; recombinant protein; protein details: N-terminal StrepII-SUMO
[3] = biological target: T1, His-hQTRT1 (catalytic subunit of human TGT) (human) (UniProt Q9BXR0); conditions: 9-deazaguanine, without QTRT2; RBT buffer: 50 mM Tris-HCl pH 7.5, 20 mM NaCl, 5 mM MgCl2, 2 mM DTT, 37 C, 1-1.5 h, with 9-deazaguanine (25-50 uM); capture-release with poly(U) and ArgSL competitors; recombinant protein; protein details: N-terminal His
T1 sequence (looked up, limits assumed): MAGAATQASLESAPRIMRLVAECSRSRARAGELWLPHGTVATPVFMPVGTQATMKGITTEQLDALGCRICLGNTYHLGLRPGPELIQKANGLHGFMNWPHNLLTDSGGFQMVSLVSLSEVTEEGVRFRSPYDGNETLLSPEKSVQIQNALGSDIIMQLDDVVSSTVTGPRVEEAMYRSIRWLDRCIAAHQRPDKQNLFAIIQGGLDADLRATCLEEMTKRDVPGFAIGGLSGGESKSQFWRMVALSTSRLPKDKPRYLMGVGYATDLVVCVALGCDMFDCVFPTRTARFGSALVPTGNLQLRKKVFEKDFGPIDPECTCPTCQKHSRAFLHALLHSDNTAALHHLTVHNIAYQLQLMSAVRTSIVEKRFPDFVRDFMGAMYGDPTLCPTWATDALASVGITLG

Chains of the proteins cited; added tags and fusions are not shown. A change or cut given only in a name is not applied to a line headed by its entry. A line that says so, or that is headed by a name, gives the form on record, which may keep a tag or linker.
UniProt Q9H974: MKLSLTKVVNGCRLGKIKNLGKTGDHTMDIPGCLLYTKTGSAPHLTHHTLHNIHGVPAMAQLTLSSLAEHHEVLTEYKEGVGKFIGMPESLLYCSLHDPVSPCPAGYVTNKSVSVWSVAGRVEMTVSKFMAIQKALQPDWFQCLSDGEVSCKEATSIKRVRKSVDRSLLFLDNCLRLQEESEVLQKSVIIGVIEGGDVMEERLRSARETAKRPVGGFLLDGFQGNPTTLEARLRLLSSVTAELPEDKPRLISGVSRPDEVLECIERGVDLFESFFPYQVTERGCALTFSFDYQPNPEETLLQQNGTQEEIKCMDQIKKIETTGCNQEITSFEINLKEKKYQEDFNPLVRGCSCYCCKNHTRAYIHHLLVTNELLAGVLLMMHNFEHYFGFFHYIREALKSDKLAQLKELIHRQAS
His-hQTRT1 (catalytic subunit of human TGT) + StrepII-hQTRT2 (noncatalytic subunit), one chain, as listed by the source: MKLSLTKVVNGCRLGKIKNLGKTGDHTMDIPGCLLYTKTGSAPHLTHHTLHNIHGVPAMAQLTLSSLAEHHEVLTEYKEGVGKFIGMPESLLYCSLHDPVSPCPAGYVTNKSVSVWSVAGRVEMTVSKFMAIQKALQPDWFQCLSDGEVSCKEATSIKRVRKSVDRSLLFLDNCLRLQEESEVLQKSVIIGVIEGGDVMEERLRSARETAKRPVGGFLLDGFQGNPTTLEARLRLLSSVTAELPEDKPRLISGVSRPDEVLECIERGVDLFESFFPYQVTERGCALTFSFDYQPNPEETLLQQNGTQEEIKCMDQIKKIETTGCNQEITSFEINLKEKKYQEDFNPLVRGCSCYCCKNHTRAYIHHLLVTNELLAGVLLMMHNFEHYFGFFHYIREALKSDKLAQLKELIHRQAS

Measured: binding result

CCCCGCCUGUCACGCGGGA [Aspartyl anticodon stem loop (AspSL)]
no binding: all assays above

Source: PMC8136771
